Measurements as given in article PMC12431657, “Discovery and mechanistic insights of dibenzoylmethane as a broad spectrum inhibitor of coronavirus” (PLOS Pathogens, 2025).
Structures can show the parent of a compound that is named as a salt. Where two headings read alike, the source gives them in different places. Hit rate of the full screen: of about 3,300 compounds, about 95 (3%) showed an effect of 50% or more. This is one part of the list.

Test system: HCoV-229E
Design: species or system Huh-7; HTS, protection from HCoV-229E induced cell death, luminescent cell viability (CellCounting-Lite 2.0), inhibition rate
Conditions: 24 h post infection, 1 h compound pre-incubation, 10 µM, inhibitor

Row | Structure (SMILES) | 229E Inhibition rate | 229E Inhibition rate (229E Inhibition rate, 24 h)
1 | CCCCC/C=C\C/C=C\CCCCCCCC(=O)O[C@H]1CC[C@@]2(C)C(=CC[C@H]3[C@@H]4CC[C@H]([C@H](C)CCCC(C)C)[C@@]4(C)CC[C@@H]32)C1 [Cholesteryl linoleate] | 19.1% | –
2 | C=CCCCCCCCCC(=O)O [10-Undecenoic acid] | 16.2% | –
3 | COc1ccc(CC(=O)O)cc1 [2-(4-Methoxyphenyl)acetic acid] | 0% | –
4 | C=C1C(=O)[C@@]23[C@H](O)C[C@@H]4C(C)(C)CC[C@H](O)[C@@]4(CO)[C@@H]2CC[C@@H]1[C@H]3O [Kamebakaurin] | 0% | –
5 | COc1c(O)cc2oc3cc(O)c(CC=C(C)C)c(O)c3c(=O)c2c1CC=C(C)C [alpha-Mangostin] | 42.5% | –
6 | Cc1cccc(CC(=O)O)c1 [m-Tolylacetic acid] | 18.9% | –
7 | C[C@H](CCC(=O)NCCS(=O)(=O)O)[C@H]1CC[C@H]2[C@@H]3[C@@H](O)C[C@@H]4C[C@H](O)CC[C@]4(C)[C@H]3CC[C@]12C [Tauroursodeoxycholate] | 17.1% | –
8 | COc1ccc([C@@H]2CC(=O)c3c(O)cc(O[C@@H]4O[C@H](CO[C@@H]5O[C@@H](C)[C@H](O)[C@@H](O)[C@H]5O)[C@@H](O)[C@H](O)[C@H]4O)cc3O2)cc1OC [Methyl-Hesperidin] | 34.1% | –
9 | CCOc1ccc2ccc(=O)oc2c1 [7-Ethoxycoumarin] | 16.8% | –
10 | O=C1c2c(O)cc(O)cc2O[C@H](c2cc(O)c(O)c(O)c2)[C@H]1O [Dihydromyricetin] | 0% | –
11 | Oc1cc2cc[nH]c2cc1O [5,6-Dihydroxyindole] | 1.6% | –
12 | CC1=CCC(C(C)C)=CC1 [γ-Terpinene] | 7.7% | –
13 | O=C(O[C@@H]1Cc2c(O)cc(O)cc2O[C@H]1c1cc(O)c(O)c(O)c1)c1cc(O)c(O)c(O)c1 [(-)-Gallocatechin gallate] | 11% | –
14 | C=C(CO)C(=O)O[C@H]1CC(=C)[C@@H]2C[C@H](O)C(=C)[C@@H]2[C@H]2OC(=O)C(=C)[C@@H]21 [Cynaropicrin] | 8.5% | –
15 | OC[C@H]1O[C@@H](Oc2ccc3c(c2)OC[C@H]2c4cc5c(cc4O[C@@H]32)OCO5)[C@H](O)[C@@H](O)[C@@H]1O [Trifolirhizin] | 10.7% | –
16 | COc1ccc(C(=O)O)cc1OC [Veratric acid] | 18% | –
17 | C[C@H]1[C@H](OC(=O)CCC(=O)O)O[C@@H]2O[C@@]3(C)CC[C@H]4[C@H](C)CC[C@@H]1[C@@]24OO3 [Artesunate] | 4.1% | –
18 | CCCCCCCCCCCCOC(=O)CS(=O)(=O)O [Sodium lauryl sulfoacetate] | 17.1% | –
19 | Cc1c(O)c(C)c2c(c1O)C(=O)[C@H](Cc1ccc3c(c1)OCO3)CO2 [Methylophiopogonanone A] | 21.6% | –
20 | COC(=O)/C=C/c1ccccc1 [Methyl cinnamate] | 15% | –

Row | Structure (SMILES) | 229E Inhibition rate | 229E Inhibition rate (229E Inhibition rate, 24 h)
21 | O=C(O)c1ccc(C(=O)O)cc1 [Terephthalic acid] | 10.1% | –
22 | COc1ccc(O)c(C(=O)O)c1 [5-Methoxysalicylic acid] | 11.2% | –
23 | COc1ccc(CCO[C@@H]2O[C@H](CO[C@@H]3O[C@H](CO)[C@H](O)[C@H](O)[C@H]3O)[C@@H](OC(=O)/C=C/c3ccc(O)c(OC)c3)[C@H](O[C@@H]3O[C@@H](C)[C@H](O)[C@@H](O)[C@H]3O)[C@H]2O)cc1O [Jionoside B1] | 0% | –
24 | CC(C)=CCC/C(C)=C/Cc1c(O)c(CC=C(C)C)c2c(c1O)C(=O)C1=C[C@@H]3C[C@H]4C(C)(C)O[C@@](C/C=C(/C)C(=O)O)(C3=O)[C@@]14O2 [Gambogenic acid] | 1.1% | –
25 | COc1ccc(-c2cc(=O)c3c(OC)c(OC)c(OC)cc3o2)cc1OC [Sinensetin] | 36.1% | –
26 | COc1cc2c(cc1OC)[C@H]1Cc3ccc(OC)c(OC)c3CN1CC2 [D-Tetrahydropalmatine] | 11.9% | –
27 | CC(=O)O[C@H]1CC[C@]2(C)[C@H]3CC=C4[C@@H]5[C@@H](C)[C@H](C)CC[C@]5(C(=O)O)CC[C@@]4(C)[C@]3(C)CC[C@H]2C1(C)C [Ursolic acid acetate] | 6% | –
28 | O=C(O)C[C@H](C(=O)O)[C@H]1c2c(cc(O)c(O)c2O)C(=O)O[C@@H]1C(=O)O [Chebulic acid] | 20.4% | –
29 | C[C@H](O)[C@H](O)C1=Nc2c(nc(N)[nH]c2=O)NC1 [7,8-Dihydro-L-biopterin] | 24.5% | –
30 | CC1OCCC1=O (stereo not shown) [2-Methyltetrahydrofuran-3-one] | 9.2% | –
32 | COc1ccc2c(c1)OC[C@@H](c1cc(O)c(OC)c(OC)c1O)C2 [Colutehydroquinone] | 7.3% | –
33 | COc1ccc(-c2cc(=O)c3c(O)c(OC)c(O)cc3o2)cc1 [Pectolinarigenin] | 11.1% | –
34 | CC1(C)[C@H](C(=O)O)CC[C@]1(C)C(=O)O [(-)-Camphoric acid] | 18.8% | –
35 | COc1ccc([C@H]2O[C@@H](c3ccc(OC)c(OC)c3)[C@H](C)[C@H]2C)cc1OC [Veraguensin] | 19% | –
36 | C[S+]([O-])CC[C@H](N)C(=O)O (stereo partly shown) [Methionine sulfoxide] | – | 10.9%
37 | OC[C@H]1O[C@@](CO)(O[C@H]2O[C@H](CO)[C@@H](O)[C@H](O)[C@H]2O)[C@@H](O[C@H]2O[C@H](CO)[C@@H](O)[C@H](O)[C@H]2O)[C@@H]1O [D-(+)-Melezitose] | 7.9% | –
38 | CC(=O)O[C@@H]1C[C@@H]2CC[C@@]1(C)C2(C)C [(-)-Bornyl acetate] | 7.4% | –
39 | CC(C)[C@H](N)C(=O)O [L-Valine] | 15.3% | –
40 | O=C(O)c1ccco1 [2-Furoic acid] | 5.4% | –

Of the compounds above, these have nitrogen in an aromatic ring.
Row | Structure (SMILES) | 229E Inhibition rate | 229E Inhibition rate (229E Inhibition rate, 24 h)
11 | Oc1cc2cc[nH]c2cc1O [5,6-Dihydroxyindole] | 1.6% | –
29 | C[C@H](O)[C@H](O)C1=Nc2c(nc(N)[nH]c2=O)NC1 [7,8-Dihydro-L-biopterin] | 24.5% | –
